Experimental data as given in the supplement of paper PMC7877785.
± gives the uncertainty stated by the source. Many entries were measured with a wide error.

Experiment: self-splicing fitness, log relative to wild type (ln ratio); higher = more splicing; Tetrahymena group I intron in knt gene, E. coli kanamycin selection, DiMSum; sequences stand for … in CUCUCU…GGAGGGAAAAGUUAUCAGGCAUGCACCUGGUAGCUAGUCUUUAAACCAAUAGAUUGCAUCGGUUUAAAAGGCAAGACCGUCAAAUUGCGGGAAAGGGGUCAACAGCCGUUCAGUACCAAGUCUCAGGGGAAACUUUGAGAUGGCCUUGCAAAGGGUAUGGUAAUAAGCUGACGGACAUGGUCCUAACCACGCAGCCAAGUCCUAAGUCAACAGAUCUUCUGUUGAUAUGGAUGCAGUUCACAGACUAAAUGUCGGUCGGGGAAGAUGUAUUCUUCUCAUAAGAUAUAGUCGGACCUCUCCUUAAUGGGAGCUAGCGGAUGAAGUGAUGCAACACUGGAGCCGCUGGGAACUAAUUUGUAUGCGAAAGUAUAUUGAUUAGUUUUGGAGUACUCGUGGUCG
How it was run: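 Colonies from six replicate transformations of E. coli BL21(DE3) were pooled and amplicon-sequenced on an Illumina HiSeq 2500. The library placed an intron with all eight P1ex-region nucleotides randomised inside the knt kanamycin-resistance gene on pET-22b(+), and cells grew overnight at 37°C or 30°C on LB agar with or without 25 μg/mL kanamycin (plus 100 μg/mL carbenicillin, 50 μM IPTG, 0.2% rhamnose). Fitness is the DiMSum error-weighted combination of wild-type-normalised replicate fold changes, kanamycin versus none.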

Sequence | self-splicing fitness (ln) (30 °C) | self-splicing fitness (ln) (37 °C)
UGGCAGCAAUAUUACGAAAC | -3.22 ± 0.6 | –
GGGUAGCAAUAUUACGUGUA | -0.214 ± 0.12 | -0.897 ± 0.14
GAAUAGCAAUAUUACGAUAG | -0.707 ± 0.15 | -1.47 ± 0.22
UAUGAGCAAUAUUACGACGC | -3.13 ± 1 | –
GAGUAGCAAUAUUACGCUAU | – | -3.8 ± 0.73
GAUGAGCAAUAUUACGAAAG | -2.38 ± 0.51 | –
GGCUAGCAAUAUUACGCAGC | -3.46 ± 0.58 | –
CUAGAGCAAUAUUACGCGGA | -2.44 ± 0.78 | –
CUUUAGCAAUAUUACGGCCC | – | -1 ± 0.92
CCUUAGCAAUAUUACGCUCG | -3.42 ± 1 | –
CAGUAGCAAUAUUACGGCUG | -3.85 ± 0.47 | -2.37 ± 0.34
CGAGAGCAAUAUUACGUAAU | -4.11 ± 0.51 | –
GUCUAGCAAUAUUACGCCUG | -3.76 ± 1 | –
UGUAAGCAAUAUUACGCGUC | -3.31 ± 0.25 | -2.65 ± 0.32
GCGAAGCAAUAUUACGCCAC | -4.49 ± 1 | –
UGGAAGCAAUAUUACGAGGG | -4.54 ± 1 | –
CCGAAGCAAUAUUACGUCCA | -2.06 ± 0.51 | -2.68 ± 0.62
CAAGAGCAAUAUUACGUGGU | -3.24 ± 0.11 | -2.46 ± 0.16
CACGAGCAAUAUUACGCGGC | -4.86 ± 0.59 | –
GUCAAGCAAUAUUACGGCAG | -5.32 ± 0.58 | –
AAAAAGCAAUAUUACGCUUC | – | -2.92 ± 0.61
GUUGAGCAAUAUUACGUCUG | -2.34 ± 0.44 | -2.04 ± 0.4

Sequence | self-splicing fitness (ln) (30 °C) | self-splicing fitness (ln) (37 °C)
UGAUAGCAAUAUUACGGUAC | -4.41 ± 0.73 | –
GUUGAGCAAUAUUACGCGGA | -2.46 ± 0.65 | –
UACAAGCAAUAUUACGAGAA | -2.1 ± 0.29 | -2.42 ± 0.33
CUGUAGCAAUAUUACGUCCC | -3.48 ± 1.1 | -0.975 ± 0.9
UUGUAGCAAUAUUACGAUAU | -3.78 ± 0.53 | -1.08 ± 0.51
UACGAGCAAUAUUACGCGCG | -1.35 ± 0.13 | -1.14 ± 0.18
GUUGAGCAAUAUUACGUAGA | -4.51 ± 0.72 | –
UCCUAGCAAUAUUACGGCCC | – | -1.13 ± 1.2
GUGUAGCAAUAUUACGAGUA | -3.87 ± 0.52 | –
ACACAGCAAUAUUACGCUUC | -5.39 ± 0.58 | –
GGUCAGCAAUAUUACGCUCC | 0.00526 ± 0.51 | -1.06 ± 0.8
UUUGAGCAAUAUUACGGCCA | -2.36 ± 1.2 | –
UGGAAGCAAUAUUACGAAUU | -3.34 ± 0.64 | –
GUAGAGCAAUAUUACGAAGG | – | -1.66 ± 0.55
GGGGAGCAAUAUUACGGAGA | -4.57 ± 0.6 | -3.7 ± 0.52
CUGGAGCAAUAUUACGCUGA | -3.75 ± 1 | -2.42 ± 0.51
UUUAAGCAAUAUUACGAAGG | -3.55 ± 0.52 | -2.81 ± 0.53
CGUUAGCAAUAUUACGAAGC | – | -2.89 ± 1.1
GUAAAGCAAUAUUACGUGGU | -3.26 ± 0.12 | -1.11 ± 0.095
AAUGAGCAAUAUUACGGAGU | -2.31 ± 0.52 | –
GGAUAGCAAUAUUACGACGG | -4.21 ± 0.52 | –

Record cards, from the list above. Order of values: self-splicing fitness (ln) (30 °C) | self-splicing fitness (ln) (37 °C)
AAUGAGCAAUAUUACGGAGU as listed: -2.31 ± 0.52 | –
UCCUAGCAAUAUUACGGCCC as listed: – | -1.13 ± 1.2
CUGUAGCAAUAUUACGUCCC as listed: -3.48 ± 1.1 | -0.975 ± 0.9
UUUGAGCAAUAUUACGGCCA as listed: -2.36 ± 1.2 | –
